# Measurements reported in publication PMC4046817.
# Construct, isoform or probe ends are uncertain for at least one entry. A negative result means that nothing was seen under these conditions. Protein sequences can lack the tags named with them.
# Biological target: T1, Ss-LrpB (UniProt Q7LX67)
# T1 sequence (looked up, limits assumed): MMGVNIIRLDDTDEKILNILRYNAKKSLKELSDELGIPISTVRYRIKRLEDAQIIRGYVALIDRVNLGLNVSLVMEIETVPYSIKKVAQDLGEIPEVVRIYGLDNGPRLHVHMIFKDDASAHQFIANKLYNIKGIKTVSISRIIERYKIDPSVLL
# Assay: EMSA
# Conditions: EMSA/footprinting in LrpB binding buffer (ref. 27), composition, pH and temperature not given, recombinant protein, label: 5'-32P, probe letters rebuilt from the primers and the genome
Sequence,binding result,binding result (none or only nonspecific)
TTGCTCTTTAAAGTCTGACGAAGTACATTTTTCAGCTGATAATTAAAACCATTAGATTATATAGAATAATTTGTATAAAAGTTTGTTAATAAATTTTTAAATTTTTTTAAGGGTGATATATGACTCTGATGTTTAACGTTCGCCCATTTTACAACGTTAATCGTATAATTTAGATGTTACCGGAAACAAAGATAAAGGAGGTTCTGGAATCGATTTTGATACTATTATAACTACAGAGGGCTCATTATCTGTAATGTCATCCATGACCTTGTCTAATTTGAGCGGAATTGGAAAAATTATCATTATTTAATATCAGTACGATTATAAACTAGGTCTACTATAAAAATGAAACATGTTAATAGGGTATTACGGAAATAATTGACCACTTCTAAGATAAAATTTACAAAAGTTAAAATTAACTAAGCAAACAAGTTTCCTCTTCATCTTAATCTTATAGTTAAACCTTAGGGAAGGAAAACATTCACA (double strand) [Sso2133 fragment (Box6)],binds,
TTTTTCATCTCATTTTTATGTTACGCGTATATAGGTTTATTATTAATTGTTGATAATACCTATGTATTCATATTAGTTGGTTAAGGACATTTTTAGGACTTGCTGAAGGTTATTATGTGGGAAATAGTTATTTATACGTATTCGCTACTAAAATAGACAAGAATGTCATCCATATCAGCGGACACAGACGAATTATATAAGAAGATATCTGAGCTCAAAGAGAATATAGTTAGACTAAAGCAACTCAAGTTAGAACTTATTGAAAAGGTCAAAAAAATGAGAGAGAAAAGGAGGGAAAAAATAGCCAAAGTAAAAGAGTTGACGCAGCAAATTAACGTAGTAAGGCAAGAGTATAAAATGAAATTAGAGGAATTTAACCAGCTT (double strand) [Sso0974 fragment],,no binding
